Measurements taken from US20160200815A1.
Results are given in words; binding and its absence hold for the method and conditions named. Some results given as binding are weak or reduced against the parent protein; the word gives no strength.

Biological target: hTIM3-Fc WT (human)
Assay: ELISA on hTIM3-Fc loop-swap constructs

B1: mAb58 (antibody, V domains shown)
VH: QIQLVQSGPELKKPGETVKISCKASGYTFTTYGMSWVKQAPGKGLKLMGWINTYSGAPTYADDFKGRFAFSLETSASAAYLQINNLKNEDTATYFCARKPPHYYVNSFDYWGQGTTLTVSS
VL: DIVMTQSPATLSVTPGDRVSLSCRASQSISDYLHWYQQKSHESPRLLIKYASQSISGIPSRFSGSGSGSDFTLSINSVEPEDVGVYYCQNGHSFPYTFGGGTKLEIK
With B1 the binding was “binds”.
